Source: publication PMC7819943, “Rice protein-binding microarrays: a tool to detect cis-acting elements near promoter regions in rice”
This is one part of the list.

Protein sequences, listed by entry. Tags and fused reporters are not part of them.
UniProt Q0JBA9, entry or part of it: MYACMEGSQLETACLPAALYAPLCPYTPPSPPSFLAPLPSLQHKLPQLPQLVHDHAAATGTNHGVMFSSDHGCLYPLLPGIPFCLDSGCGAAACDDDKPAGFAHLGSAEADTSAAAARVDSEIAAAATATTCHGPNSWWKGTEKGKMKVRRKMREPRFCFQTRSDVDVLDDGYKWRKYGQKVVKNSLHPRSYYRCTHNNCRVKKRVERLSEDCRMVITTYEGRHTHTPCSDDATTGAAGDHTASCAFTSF

Target: OsWRKY34 (Oryza sativa, UniProt Q0JBA9 1-250)
Assay: protein-binding microarray (RPBM); PBS, 2% BSA, 51.3 ng/ul salmon testes DNA, 50 uM zinc acetate, 200 nM TF, 25 C, 1 h; high values mean tight binding
Conditions: protein: recombinant; tags: N-terminal polyhistidine and DsRed monomer fusion (pET32a); label: CyDye5-dUTP incorporated in the synthesized complementary strand; 3' TTTTT single-stranded linker to array surface; dsDNA, one strand shown
Procedure, shortened: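 Transcription factors were each fused at the N-terminus to a polyhistidine tag plus DsRed and expressed in E. coli BL21-CodonPlus before Ni–NTA purification. Binding to a double-stranded custom Agilent array was carried out with 200 nM protein at 25 °C for 1 h in PBS, 2% BSA, salmon testes DNA and 50 µM zinc acetate. The binding signal is per-feature fluorescence intensity, in arbitrary units, on an Axon 4000B scanner.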

Row | Sequence | binding signal
1 | GCCACGTTCTCTTCCCGCTCCGACGAATTCTGCTCTCCATCGGAGTCACCTAGTGCAG | 15100 fluorescence intensity (a.u.)
2 | GTTTAAGCTCTTCATCGGCGTTTTTTATGTTTGAAGTCATCGGAGTCACCTAGTGCAG | 12500 fluorescence intensity (a.u.)
3 | TGTTAGAGCACAACACATACACCATCACTTTTACTCTCTTCGGAGTCACCTAGTGCAG | 9800 fluorescence intensity (a.u.)
4 | GATCCCTCTATCCAGCATCTGAGGGGAATATTCCCCTCCGCGGAGTCACCTAGTGCAG | 8270 fluorescence intensity (a.u.)
5 | CGTGGCCCATCTCCAATTCTCCAGTTGCTTCCTTTTCGTTCGGAGTCACCTAGTGCAG | 12600 fluorescence intensity (a.u.)
6 | AGAATGTTATACGGCGCTCGATCTATTATTCCGCACTCTACGGAGTCACCTAGTGCAG | 8130 fluorescence intensity (a.u.)
7 | ACATCTTATTTCCCTGGGTGGGGAGATTCTAGTTAAAATTCGGAGTCACCTAGTGCAG | 19000 fluorescence intensity (a.u.)
8 | TAGCTAGCAGCACATTTTTGCATGCACCTGTAGCATATTACGGAGTCACCTAGTGCAG | 8570 fluorescence intensity (a.u.)
9 | CCGCGCCGCCGGTCACATCCAACCCAACCCAAACTGCCAGCGGAGTCACCTAGTGCAG | 9390 fluorescence intensity (a.u.)
10 | CTGACTCGTTCTTGCTCTTGTTGCAATCTTCCAAACAGTACGGAGTCACCTAGTGCAG | 8770 fluorescence intensity (a.u.)
11 | ATGTGATGACATGATGACACGATCTGAACCTACGATTTCCCGGAGTCACCTAGTGCAG | 8240 fluorescence intensity (a.u.)
12 | GTACTAAGTGGCTCGCGTCGATTCCCTTGCAACGCTGCAACGGAGTCACCTAGTGCAG | 8690 fluorescence intensity (a.u.)
13 | TCCCTCTCGCTCGCATTGCCATCCACCAAAGCCAAGAGCACGGAGTCACCTAGTGCAG | 8110 fluorescence intensity (a.u.)
14 | CGTGCTCGTTTACTCCTCCGTCGATTTCCACTTTCGCCAACGGAGTCACCTAGTGCAG | 8120 fluorescence intensity (a.u.)
15 | TTTAGTACGTGTTTGACCATTCGTCTTATTAAAAAAATTTCGGAGTCACCTAGTGCAG | 9130 fluorescence intensity (a.u.)
16 | TGGTCCCATGTTGCAGTCCTTTTTAGTGTGACTGCATTCCCGGAGTCACCTAGTGCAG | 10200 fluorescence intensity (a.u.)
17 | GTGGGTTTGAGGGCGGCCTCCTCCCTCTAGCTGGGAGGGGCGGAGTCACCTAGTGCAG | 9820 fluorescence intensity (a.u.)
18 | ACTGTGGTGATGGTGTCTTTTGTTTGTCTTCTGAATTCAGCGGAGTCACCTAGTGCAG | 12600 fluorescence intensity (a.u.)
19 | AGCAGCTTTTTTTTTTCAATGCACGGTATATTCATCAGCTCGGAGTCACCTAGTGCAG | 9880 fluorescence intensity (a.u.)
20 | ATCTCGTATTGGGTTCTTATATGGACTTTTTTCTCAATATCGGAGTCACCTAGTGCAG | 10300 fluorescence intensity (a.u.)
21 | ACGCCATTGTTTACGGCCAGTTAGCAACACATCGCAATCTCGGAGTCACCTAGTGCAG | 8680 fluorescence intensity (a.u.)

Row | Sequence | binding signal
22 | AGCTGGTTGGCGATTTTACTTTACAGTTCACACTTTTATTCGGAGTCACCTAGTGCAG | 9160 fluorescence intensity (a.u.)
23 | GTACTGTCACTTTGTCTTCCCCTACGCCACTTCCCACTGACGGAGTCACCTAGTGCAG | 10600 fluorescence intensity (a.u.)
24 | ACATCGTCGTCGCCACCACCCACGCCAACCTCGCATCTCTCGGAGTCACCTAGTGCAG | 11300 fluorescence intensity (a.u.)
25 | ATGCCATTTTTCCCGTTTGTTGCAATTGCAAAACATTTTTCGGAGTCACCTAGTGCAG | 8580 fluorescence intensity (a.u.)
26 | ATACGCTTCCTGTTACTTTCATATGTAGTTACTCTTTGTTCGGAGTCACCTAGTGCAG | 10400 fluorescence intensity (a.u.)
27 | CAACACGACGACCACCACCACATTTGTCCCAACACACCACCGGAGTCACCTAGTGCAG | 9280 fluorescence intensity (a.u.)
28 | GTGGTGGGTATGTTGGCGTTATGATTCGATGCCCCTGAACCGGAGTCACCTAGTGCAG | 10400 fluorescence intensity (a.u.)
29 | CGCAATCACCGTCCACCTGCCTCGCCGCGCGCCACGCGCGCGGAGTCACCTAGTGCAG | 10500 fluorescence intensity (a.u.)
30 | ACGTTAGTTAAAAAGTCAACGGCGTCATCCATTAAAATACCGGAGTCACCTAGTGCAG | 8900 fluorescence intensity (a.u.)
31 | TCCACTGCCGTTCCTGTCGATCCGATTCACTTCAGCCTCACGGAGTCACCTAGTGCAG | 10600 fluorescence intensity (a.u.)
32 | TCAGGAGGGGTGGAGCTGGAGCTGGAGCTGTGCCAAACAGCGGAGTCACCTAGTGCAG | 10600 fluorescence intensity (a.u.)
33 | CTCTCTCCGTACTCGCGAAGCCACGCTCCGGGCCGTTGTCCGGAGTCACCTAGTGCAG | 8960 fluorescence intensity (a.u.)
34 | ACCTCGGTAATAAAAGATGATCTAACGTAAAATTTATTATCGGAGTCACCTAGTGCAG | 23300 fluorescence intensity (a.u.)
35 | CTCTCCACCACCGCCGCGCCGCCGCACCATCCTCCTCTCTCGGAGTCACCTAGTGCAG | 9260 fluorescence intensity (a.u.)
36 | CTCTCTTTGTTGTATGTTACTAGTAGGTTGGATGAATATTCGGAGTCACCTAGTGCAG | 8570 fluorescence intensity (a.u.)
37 | ACAGCAATACCCAAACTATACGCTCCATACATCTGCCAGTCGGAGTCACCTAGTGCAG | 8860 fluorescence intensity (a.u.)
38 | GCCGAGGTGGAAGGCGACTCGATGGATGGGGTGGGGACTGCGGAGTCACCTAGTGCAG | 13700 fluorescence intensity (a.u.)
39 | TCTATCTATCACTTTTACAATATTTAACATATACTTATCACGGAGTCACCTAGTGCAG | 8960 fluorescence intensity (a.u.)
40 | CTTTGGGCCGGGATGACACACTAAACCAAGTTTAAGGATCCGGAGTCACCTAGTGCAG | 8480 fluorescence intensity (a.u.)
41 | GATGTCTGTTTCGTACCCGGTTGTCTATGTGAGCCCTTATCGGAGTCACCTAGTGCAG | 9000 fluorescence intensity (a.u.)
42 | TCTTTAGCATGATACTTACTTTGATTGCCAGCTGCACTCTCGGAGTCACCTAGTGCAG | 8620 fluorescence intensity (a.u.)

Quoted from above for reference:
Row | Sequence | binding signal
39 | TCTATCTATCACTTTTACAATATTTAACATATACTTATCACGGAGTCACCTAGTGCAG | 8960 fluorescence intensity (a.u.)
40 | CTTTGGGCCGGGATGACACACTAAACCAAGTTTAAGGATCCGGAGTCACCTAGTGCAG | 8480 fluorescence intensity (a.u.)
